Measurements reported in article PMC10817939.
These are yes or no findings as the source states them, for the method shown. Binding seen in cells or lysates may run through a third protein. Some binding calls cover weakened binding; strength is not graded here.

By UniProt entry, the sequences of proteins in these tests, tags left out.
UniProt O95071: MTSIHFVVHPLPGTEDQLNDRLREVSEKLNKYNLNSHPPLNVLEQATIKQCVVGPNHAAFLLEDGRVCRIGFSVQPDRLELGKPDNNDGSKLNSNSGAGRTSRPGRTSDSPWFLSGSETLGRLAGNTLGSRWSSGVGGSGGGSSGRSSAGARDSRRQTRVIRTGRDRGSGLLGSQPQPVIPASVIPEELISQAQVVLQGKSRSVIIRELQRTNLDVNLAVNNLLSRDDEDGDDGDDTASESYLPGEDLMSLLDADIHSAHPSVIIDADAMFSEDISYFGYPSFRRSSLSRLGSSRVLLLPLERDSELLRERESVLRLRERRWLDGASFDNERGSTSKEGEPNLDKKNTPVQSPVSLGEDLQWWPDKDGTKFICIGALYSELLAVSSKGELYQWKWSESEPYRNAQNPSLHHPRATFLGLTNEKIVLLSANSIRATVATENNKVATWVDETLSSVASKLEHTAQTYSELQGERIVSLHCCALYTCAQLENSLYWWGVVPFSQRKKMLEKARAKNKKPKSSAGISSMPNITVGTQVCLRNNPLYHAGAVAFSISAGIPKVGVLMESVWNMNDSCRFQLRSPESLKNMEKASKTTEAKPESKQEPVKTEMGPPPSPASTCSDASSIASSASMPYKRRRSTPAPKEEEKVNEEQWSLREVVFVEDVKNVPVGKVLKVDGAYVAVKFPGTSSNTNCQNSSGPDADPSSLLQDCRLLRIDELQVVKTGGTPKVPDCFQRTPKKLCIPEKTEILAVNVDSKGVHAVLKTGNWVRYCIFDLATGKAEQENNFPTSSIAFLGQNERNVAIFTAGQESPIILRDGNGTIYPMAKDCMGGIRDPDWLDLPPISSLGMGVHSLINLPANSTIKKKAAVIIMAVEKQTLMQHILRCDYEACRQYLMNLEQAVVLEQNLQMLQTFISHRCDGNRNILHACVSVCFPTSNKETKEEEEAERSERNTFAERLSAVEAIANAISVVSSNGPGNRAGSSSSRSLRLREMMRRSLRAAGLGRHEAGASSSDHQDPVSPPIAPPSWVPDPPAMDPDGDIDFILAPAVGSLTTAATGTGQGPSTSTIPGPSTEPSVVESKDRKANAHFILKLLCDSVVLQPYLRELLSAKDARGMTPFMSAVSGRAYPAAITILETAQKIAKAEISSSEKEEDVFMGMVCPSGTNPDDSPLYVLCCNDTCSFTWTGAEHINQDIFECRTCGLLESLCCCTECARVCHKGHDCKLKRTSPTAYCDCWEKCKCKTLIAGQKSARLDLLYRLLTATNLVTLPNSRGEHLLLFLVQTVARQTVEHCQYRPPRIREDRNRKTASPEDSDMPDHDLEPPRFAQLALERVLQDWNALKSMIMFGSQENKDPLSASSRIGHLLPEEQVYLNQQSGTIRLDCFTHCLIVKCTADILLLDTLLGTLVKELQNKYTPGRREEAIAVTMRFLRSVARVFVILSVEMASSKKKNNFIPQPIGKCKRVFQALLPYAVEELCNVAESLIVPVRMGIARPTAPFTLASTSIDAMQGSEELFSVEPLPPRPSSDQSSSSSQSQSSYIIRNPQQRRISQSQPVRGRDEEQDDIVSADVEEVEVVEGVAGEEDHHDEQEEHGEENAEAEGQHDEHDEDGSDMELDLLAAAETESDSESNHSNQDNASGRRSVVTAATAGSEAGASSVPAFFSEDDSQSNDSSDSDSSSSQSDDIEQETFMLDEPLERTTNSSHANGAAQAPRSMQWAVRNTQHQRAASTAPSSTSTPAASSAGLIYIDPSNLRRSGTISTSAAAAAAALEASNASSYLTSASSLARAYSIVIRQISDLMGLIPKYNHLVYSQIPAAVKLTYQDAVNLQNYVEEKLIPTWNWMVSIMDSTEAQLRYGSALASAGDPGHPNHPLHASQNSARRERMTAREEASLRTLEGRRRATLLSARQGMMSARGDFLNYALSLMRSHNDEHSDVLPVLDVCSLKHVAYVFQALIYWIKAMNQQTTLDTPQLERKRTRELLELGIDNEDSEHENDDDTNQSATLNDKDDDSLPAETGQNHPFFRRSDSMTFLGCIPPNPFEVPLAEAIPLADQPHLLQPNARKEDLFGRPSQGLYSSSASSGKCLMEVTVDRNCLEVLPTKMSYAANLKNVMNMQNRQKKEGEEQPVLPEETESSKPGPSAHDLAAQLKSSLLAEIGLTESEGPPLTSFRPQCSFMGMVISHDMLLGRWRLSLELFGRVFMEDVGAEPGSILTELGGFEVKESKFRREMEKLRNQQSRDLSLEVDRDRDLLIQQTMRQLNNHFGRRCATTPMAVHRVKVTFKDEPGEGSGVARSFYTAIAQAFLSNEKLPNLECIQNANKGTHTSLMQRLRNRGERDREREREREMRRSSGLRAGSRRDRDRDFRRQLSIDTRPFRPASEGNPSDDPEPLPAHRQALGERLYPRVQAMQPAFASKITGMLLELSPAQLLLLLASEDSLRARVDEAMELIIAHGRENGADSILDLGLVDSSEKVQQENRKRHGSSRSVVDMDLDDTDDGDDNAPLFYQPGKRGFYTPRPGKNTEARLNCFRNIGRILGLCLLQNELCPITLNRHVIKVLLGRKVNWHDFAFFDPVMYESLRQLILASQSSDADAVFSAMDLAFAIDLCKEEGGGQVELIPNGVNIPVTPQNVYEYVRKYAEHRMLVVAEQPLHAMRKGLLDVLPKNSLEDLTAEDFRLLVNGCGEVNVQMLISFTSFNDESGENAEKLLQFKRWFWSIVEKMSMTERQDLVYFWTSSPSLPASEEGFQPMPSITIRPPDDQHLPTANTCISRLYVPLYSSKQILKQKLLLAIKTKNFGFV
UniProt Q13263: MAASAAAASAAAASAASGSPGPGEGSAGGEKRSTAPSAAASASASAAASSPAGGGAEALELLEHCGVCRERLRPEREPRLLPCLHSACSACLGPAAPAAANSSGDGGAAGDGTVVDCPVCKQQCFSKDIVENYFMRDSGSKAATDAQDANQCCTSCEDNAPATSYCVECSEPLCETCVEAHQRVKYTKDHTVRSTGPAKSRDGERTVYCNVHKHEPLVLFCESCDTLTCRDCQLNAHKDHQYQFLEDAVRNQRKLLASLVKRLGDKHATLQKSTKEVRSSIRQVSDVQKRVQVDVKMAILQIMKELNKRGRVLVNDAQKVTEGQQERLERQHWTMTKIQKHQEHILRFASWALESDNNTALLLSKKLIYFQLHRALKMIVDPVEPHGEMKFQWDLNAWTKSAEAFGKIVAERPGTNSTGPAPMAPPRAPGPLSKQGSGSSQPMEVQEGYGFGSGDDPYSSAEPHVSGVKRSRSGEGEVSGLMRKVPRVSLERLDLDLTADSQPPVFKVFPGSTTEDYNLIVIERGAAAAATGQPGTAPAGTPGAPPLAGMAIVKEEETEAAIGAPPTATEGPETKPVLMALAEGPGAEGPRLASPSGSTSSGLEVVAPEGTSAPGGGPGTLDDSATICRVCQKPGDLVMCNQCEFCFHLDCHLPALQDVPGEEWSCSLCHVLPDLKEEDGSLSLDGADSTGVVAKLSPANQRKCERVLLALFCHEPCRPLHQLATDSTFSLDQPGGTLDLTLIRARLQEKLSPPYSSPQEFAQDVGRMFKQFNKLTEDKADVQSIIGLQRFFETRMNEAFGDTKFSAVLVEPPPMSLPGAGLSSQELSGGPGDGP
UniProt P04406: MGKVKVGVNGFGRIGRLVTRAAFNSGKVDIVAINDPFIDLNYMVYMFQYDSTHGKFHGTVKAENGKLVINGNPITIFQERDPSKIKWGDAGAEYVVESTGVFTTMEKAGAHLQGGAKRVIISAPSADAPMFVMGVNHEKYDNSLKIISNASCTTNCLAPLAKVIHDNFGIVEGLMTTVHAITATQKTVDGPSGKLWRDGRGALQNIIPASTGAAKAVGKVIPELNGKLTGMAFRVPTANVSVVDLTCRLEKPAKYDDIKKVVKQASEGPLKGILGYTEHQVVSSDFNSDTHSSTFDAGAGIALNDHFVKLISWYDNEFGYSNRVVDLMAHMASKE

Columns and labels:
[1] = biological target: FLAG-UBR5 (Ubiquitin Protein Ligase E3 Component N-Recognin 5) (UniProt O95071); test: co-IP; FLAG-tagged bait or vector expressed in HEK293T cells for 24 h (in some cases then poly (I:C) for 12 h); whole-cell extract in 150 mM NaCl, 50 mM Tris pH 7.5, 1 mM EDTA, 0.5% NP40, 10% glycerol; anti-FLAG magnetic beads overnight at 4 °C; eluted with 3x FLAG peptide; immunoblot
FLAG-TRIM28 = FLAG-TRIM28 (UniProt Q13263); test: as above

binding [1] | binding (FLAG-TRIM28) | Substance
no binding | – | GAPDH (from UniProt P04406 1-335)
binds | – | endogenous TRIM28 (Tripartite Motif Protein 28) (from UniProt Q13263 1-835)
– | binds | endogenous UBR5 (from UniProt O95071 1-2799) (enzyme)
